Construct, isoform or probe ends are uncertain for at least one entry. Weaker means in comparison with the reference protein, sequence or condition of that experiment. Tags and fusion partners may be left off the protein sequences shown.
Biological target: T1, PhoExo I-CHis N214L (Pyrococcus horikoshii OT3) (UniProt A0A060P168)
T1 sequence (looked up, limits assumed): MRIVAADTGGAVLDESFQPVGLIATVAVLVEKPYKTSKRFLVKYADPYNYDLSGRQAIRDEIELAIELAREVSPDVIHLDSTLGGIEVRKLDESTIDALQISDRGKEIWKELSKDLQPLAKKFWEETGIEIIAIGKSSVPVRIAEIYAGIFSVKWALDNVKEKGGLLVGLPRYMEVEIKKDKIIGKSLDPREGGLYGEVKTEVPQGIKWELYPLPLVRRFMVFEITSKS
Test: EMSA
Settings: 0.1 mM EDTA, no Mg2+, clearly reduced vs wild type, EMSA: 25 mM Hepes-NaOH pH 7.5, 50 mM NaCl, 0.1 mg/ml BSA, 5 nM probe, 0-1600 nM trimer, 5 min 55 C, then 0.05% glutaraldehyde 10 min at room temperature, recombinant protein, protein details: C-terminal 4xHis, label: 5'-32P

Sequence	binding result (single-stranded DNA)	binding result
AGCTATGACCATGATTACGAATTGCTT [27-nt DNA]	binds more weakly	–
AGCUAUGACCAUGAUUACGAAUUGCUU [27-nt RNA]	–	binds more weakly

Reference: publication PMC4538837, “Structural basis for substrate recognition and processive cleavage mechanisms of the trimeric exonuclease PhoExo I”
